{"source": "PubChem BioAssay AID652243 (Drosophila RNAi Screening Center, 2013)", "aim": "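Knock-downs that decrease or increase androgen receptor reporter signal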 (primary screen)", "cell system": "Drosophila S2R+ cells", "reagents": "long dsRNA against Drosophila genes", "time to read-out": "72 h (48 h, then 24 h hormone)", "conditions": "synthetic androgen R1881 at 10 nM for 24 h", "measured": "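Firefly light from an androgen-responsive reporter and Renilla control light per well, raw and unnormalised, for each of two replicates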", "direction": "firefly reporter light: higher = more light from androgen-responsive reporter; Renilla control light: higher = more constitutive control signal (cell number, transfection)", "rule for the call": "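Hit when the log firefly-to-Renilla ratio dropped or increased by a fixed fold versus the mean of GFP or LacZ controls across duplicate plates; lowering cut given as 1.5 and as 3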", "calls": "active = hit: reporter lowered or raised; inactive = no hit", "note": "The deposit covers about 24,000 reagents; shown is an unselected part of those with a known target gene and a result. Over the whole deposit, 246 (1%) are marked active. 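Plates not normalised; calls are printed but the firefly/Renilla ratio behind them is not deposited; fold cut for lowering reported inconsistently.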 Raw values are not corrected between plates. The record does not give: the amount of reagent."}
{"predicted target": "Cpr78E", "amplicon": "DRSC11807", "firefly reporter light, replicate 1": 3.30e5, "firefly reporter light, replicate 2": 2.32e5, "Renilla control light, replicate 1": 2.60e6, "Renilla control light, replicate 2": 2.49e6, "outcome": "inactive"}
{"predicted target": "kek5", "amplicon": "DRSC19438", "firefly reporter light, replicate 1": 81260, "firefly reporter light, replicate 2": 48041, "Renilla control light, replicate 1": 1.58e5, "Renilla control light, replicate 2": 1.27e5, "outcome": "inactive"}
{"predicted target": "kek5", "amplicon": "DRSC24470", "firefly reporter light, replicate 1": 3.35e5, "firefly reporter light, replicate 2": 4.09e5, "Renilla control light, replicate 1": 4.63e5, "Renilla control light, replicate 2": 5.84e5, "outcome": "inactive"}
{"predicted target": "kek5", "amplicon": "DRSC39004", "firefly reporter light, replicate 1": 4.74e5, "firefly reporter light, replicate 2": 4.76e5, "Renilla control light, replicate 1": 1.62e6, "Renilla control light, replicate 2": 1.70e6, "outcome": "inactive"}
{"predicted target": "CG13581", "amplicon": "DRSC04216", "firefly reporter light, replicate 1": 3.05e5, "firefly reporter light, replicate 2": 3.11e5, "Renilla control light, replicate 1": 2.07e6, "Renilla control light, replicate 2": 1.87e6, "outcome": "inactive"}
{"predicted target": "Adk1", "amplicon": "DRSC15514", "firefly reporter light, replicate 1": 2.13e5, "firefly reporter light, replicate 2": 2.36e5, "Renilla control light, replicate 1": 2.98e6, "Renilla control light, replicate 2": 2.97e6, "outcome": "inactive"}
{"predicted target": "Adk1", "amplicon": "DRSC36923", "outcome": "inactive"}
{"predicted target": "CG13962", "amplicon": "DRSC02304", "firefly reporter light, replicate 1": 1.44e5, "firefly reporter light, replicate 2": 1.08e5, "Renilla control light, replicate 1": 1.16e6, "Renilla control light, replicate 2": 1.39e6, "outcome": "inactive"}
{"predicted target": "CG13962", "amplicon": "DRSC30042", "firefly reporter light, replicate 1": 8.85e5, "firefly reporter light, replicate 2": 7.38e5, "Renilla control light, replicate 1": 1.28e6, "Renilla control light, replicate 2": 1.26e6, "outcome": "inactive"}
{"predicted target": "Mal-A8", "amplicon": "DRSC07234", "firefly reporter light, replicate 1": 2.39e5, "firefly reporter light, replicate 2": 2.26e5, "Renilla control light, replicate 1": 1.30e6, "Renilla control light, replicate 2": 1.50e6, "outcome": "inactive"}
{"predicted target": "mRRF1", "amplicon": "DRSC10421", "firefly reporter light, replicate 1": 6.31e5, "firefly reporter light, replicate 2": 4.13e5, "Renilla control light, replicate 1": 9.85e5, "Renilla control light, replicate 2": 6.05e5, "outcome": "inactive"}
{"predicted target": "CG1888", "amplicon": "DRSC06797", "firefly reporter light, replicate 1": 3.14e5, "firefly reporter light, replicate 2": 2.54e5, "Renilla control light, replicate 1": 1.85e6, "Renilla control light, replicate 2": 1.70e6, "outcome": "inactive"}
